From patent US6635431
These are yes or no findings as the source states them, for the method shown. For part of these data: Binding seen in cells or lysates may run through a third protein. Some entries that bind do so weakly or less than the wild type.

Chains of the proteins cited; added tags and fusions are not shown. Residues count along the entry.
UniProt P04114, residues 28-4563: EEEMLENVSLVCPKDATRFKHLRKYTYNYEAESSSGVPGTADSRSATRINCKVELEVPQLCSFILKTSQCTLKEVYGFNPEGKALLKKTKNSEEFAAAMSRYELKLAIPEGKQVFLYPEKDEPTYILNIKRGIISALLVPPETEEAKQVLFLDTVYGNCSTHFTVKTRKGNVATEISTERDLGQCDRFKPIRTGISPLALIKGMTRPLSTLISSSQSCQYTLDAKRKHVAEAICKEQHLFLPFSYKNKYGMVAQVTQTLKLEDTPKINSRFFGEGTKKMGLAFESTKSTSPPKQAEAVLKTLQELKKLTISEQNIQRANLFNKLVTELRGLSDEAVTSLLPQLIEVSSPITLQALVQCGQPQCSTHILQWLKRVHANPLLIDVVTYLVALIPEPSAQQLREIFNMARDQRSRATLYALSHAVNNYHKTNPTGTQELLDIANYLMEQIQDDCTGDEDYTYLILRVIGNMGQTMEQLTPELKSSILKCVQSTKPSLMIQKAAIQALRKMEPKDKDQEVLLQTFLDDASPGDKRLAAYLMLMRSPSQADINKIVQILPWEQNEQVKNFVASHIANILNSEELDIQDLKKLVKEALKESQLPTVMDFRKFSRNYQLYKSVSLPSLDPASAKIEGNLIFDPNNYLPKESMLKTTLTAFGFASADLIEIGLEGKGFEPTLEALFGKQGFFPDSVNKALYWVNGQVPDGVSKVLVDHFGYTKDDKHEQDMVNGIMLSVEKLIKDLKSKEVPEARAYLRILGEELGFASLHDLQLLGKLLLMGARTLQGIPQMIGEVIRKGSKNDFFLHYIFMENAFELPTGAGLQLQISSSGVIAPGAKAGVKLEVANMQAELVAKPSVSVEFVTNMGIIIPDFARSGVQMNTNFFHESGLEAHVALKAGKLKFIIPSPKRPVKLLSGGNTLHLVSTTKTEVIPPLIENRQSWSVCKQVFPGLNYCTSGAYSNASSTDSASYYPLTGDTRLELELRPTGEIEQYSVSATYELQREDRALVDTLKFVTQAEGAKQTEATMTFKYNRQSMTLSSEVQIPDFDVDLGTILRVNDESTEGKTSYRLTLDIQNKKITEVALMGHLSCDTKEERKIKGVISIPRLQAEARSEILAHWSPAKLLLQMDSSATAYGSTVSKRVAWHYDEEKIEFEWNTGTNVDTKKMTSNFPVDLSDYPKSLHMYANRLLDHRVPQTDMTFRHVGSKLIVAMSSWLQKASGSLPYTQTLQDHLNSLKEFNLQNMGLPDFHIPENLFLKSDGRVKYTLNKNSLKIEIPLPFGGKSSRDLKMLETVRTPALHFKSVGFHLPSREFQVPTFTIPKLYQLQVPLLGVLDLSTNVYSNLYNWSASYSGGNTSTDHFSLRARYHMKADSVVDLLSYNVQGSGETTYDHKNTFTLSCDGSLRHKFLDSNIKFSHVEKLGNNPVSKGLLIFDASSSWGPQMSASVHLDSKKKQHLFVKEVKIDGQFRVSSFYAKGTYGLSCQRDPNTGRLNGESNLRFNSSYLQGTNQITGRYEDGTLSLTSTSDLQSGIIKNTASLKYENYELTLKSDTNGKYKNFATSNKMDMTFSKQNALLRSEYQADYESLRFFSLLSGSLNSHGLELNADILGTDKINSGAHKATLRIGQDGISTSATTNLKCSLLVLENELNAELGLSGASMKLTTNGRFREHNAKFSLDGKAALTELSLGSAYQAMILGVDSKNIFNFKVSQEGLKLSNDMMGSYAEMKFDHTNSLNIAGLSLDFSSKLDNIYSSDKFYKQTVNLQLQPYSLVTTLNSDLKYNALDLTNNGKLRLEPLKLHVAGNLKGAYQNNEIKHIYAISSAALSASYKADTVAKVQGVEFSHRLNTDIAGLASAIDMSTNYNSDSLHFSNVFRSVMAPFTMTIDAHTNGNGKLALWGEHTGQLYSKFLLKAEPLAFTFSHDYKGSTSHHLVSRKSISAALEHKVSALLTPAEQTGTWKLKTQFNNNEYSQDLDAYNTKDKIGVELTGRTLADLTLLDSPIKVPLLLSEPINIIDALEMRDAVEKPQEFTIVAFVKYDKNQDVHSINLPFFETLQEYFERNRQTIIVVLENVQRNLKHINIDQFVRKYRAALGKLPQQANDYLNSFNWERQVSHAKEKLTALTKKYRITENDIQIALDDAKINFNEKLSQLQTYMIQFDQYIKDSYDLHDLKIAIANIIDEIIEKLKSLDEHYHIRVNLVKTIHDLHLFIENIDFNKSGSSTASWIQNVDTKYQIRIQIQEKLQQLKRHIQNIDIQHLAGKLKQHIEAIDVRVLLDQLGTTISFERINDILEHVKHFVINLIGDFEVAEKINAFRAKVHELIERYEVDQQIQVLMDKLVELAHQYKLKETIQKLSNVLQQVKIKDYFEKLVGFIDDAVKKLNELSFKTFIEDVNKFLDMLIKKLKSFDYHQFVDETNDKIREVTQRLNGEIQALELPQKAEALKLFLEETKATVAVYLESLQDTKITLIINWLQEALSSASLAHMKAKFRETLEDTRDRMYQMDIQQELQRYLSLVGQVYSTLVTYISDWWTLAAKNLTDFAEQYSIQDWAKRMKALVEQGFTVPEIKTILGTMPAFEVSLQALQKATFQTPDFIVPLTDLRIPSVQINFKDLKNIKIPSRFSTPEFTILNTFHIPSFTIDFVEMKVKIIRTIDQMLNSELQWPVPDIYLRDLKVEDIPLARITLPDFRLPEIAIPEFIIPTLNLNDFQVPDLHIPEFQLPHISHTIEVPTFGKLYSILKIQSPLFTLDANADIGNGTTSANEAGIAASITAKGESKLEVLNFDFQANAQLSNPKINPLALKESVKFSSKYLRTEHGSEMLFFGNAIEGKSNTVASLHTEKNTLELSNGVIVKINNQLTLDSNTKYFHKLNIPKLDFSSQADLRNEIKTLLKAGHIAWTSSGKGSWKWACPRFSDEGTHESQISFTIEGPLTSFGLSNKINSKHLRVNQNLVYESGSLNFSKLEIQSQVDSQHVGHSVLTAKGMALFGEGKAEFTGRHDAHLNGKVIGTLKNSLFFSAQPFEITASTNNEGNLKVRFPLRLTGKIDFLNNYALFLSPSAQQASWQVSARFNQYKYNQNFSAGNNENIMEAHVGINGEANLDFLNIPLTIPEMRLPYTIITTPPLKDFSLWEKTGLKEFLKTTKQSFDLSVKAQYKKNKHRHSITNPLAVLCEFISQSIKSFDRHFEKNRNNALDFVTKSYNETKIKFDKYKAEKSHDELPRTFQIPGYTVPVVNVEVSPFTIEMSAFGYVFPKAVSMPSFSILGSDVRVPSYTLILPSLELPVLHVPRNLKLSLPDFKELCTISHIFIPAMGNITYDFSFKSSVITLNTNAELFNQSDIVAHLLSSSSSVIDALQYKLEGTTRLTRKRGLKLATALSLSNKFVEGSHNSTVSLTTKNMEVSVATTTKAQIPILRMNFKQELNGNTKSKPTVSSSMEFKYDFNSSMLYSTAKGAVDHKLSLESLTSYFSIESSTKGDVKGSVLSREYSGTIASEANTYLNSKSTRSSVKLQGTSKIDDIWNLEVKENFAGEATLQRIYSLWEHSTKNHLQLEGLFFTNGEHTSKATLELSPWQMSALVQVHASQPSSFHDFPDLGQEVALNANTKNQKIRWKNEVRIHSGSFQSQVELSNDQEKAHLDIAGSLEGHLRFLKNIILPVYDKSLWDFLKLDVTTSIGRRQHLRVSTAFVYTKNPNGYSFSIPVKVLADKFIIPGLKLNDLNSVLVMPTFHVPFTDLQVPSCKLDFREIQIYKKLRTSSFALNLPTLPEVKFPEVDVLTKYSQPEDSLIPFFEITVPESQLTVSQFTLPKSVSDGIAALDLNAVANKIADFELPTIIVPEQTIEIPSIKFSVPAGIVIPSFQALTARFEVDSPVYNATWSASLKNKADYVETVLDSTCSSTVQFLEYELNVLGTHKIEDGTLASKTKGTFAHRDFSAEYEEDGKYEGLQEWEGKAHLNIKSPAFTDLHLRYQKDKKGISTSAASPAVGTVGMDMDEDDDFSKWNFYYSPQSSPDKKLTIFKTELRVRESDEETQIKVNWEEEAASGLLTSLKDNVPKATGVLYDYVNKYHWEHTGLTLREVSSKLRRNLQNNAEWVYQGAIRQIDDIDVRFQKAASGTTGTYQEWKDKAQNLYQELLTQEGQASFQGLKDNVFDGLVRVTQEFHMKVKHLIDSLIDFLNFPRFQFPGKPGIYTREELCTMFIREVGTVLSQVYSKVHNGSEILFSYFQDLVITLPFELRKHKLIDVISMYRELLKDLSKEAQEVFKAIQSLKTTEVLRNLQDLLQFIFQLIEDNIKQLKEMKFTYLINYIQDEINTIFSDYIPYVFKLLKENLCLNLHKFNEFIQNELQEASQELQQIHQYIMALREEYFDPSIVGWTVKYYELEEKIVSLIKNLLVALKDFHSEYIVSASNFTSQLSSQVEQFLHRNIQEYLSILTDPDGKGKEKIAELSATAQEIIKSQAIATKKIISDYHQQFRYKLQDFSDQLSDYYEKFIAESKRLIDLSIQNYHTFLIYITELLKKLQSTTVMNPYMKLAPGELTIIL

Experiments:
[1] = target: T1, recombinant rat LSR receptor expressed in CHO-K1 cells co-transfected with the α and β plasmids (rat) (UniProt Q9WU74); test: binding, internalization and degradation of 125I-LDL on transiently transfected CHO-K1 cells with or without 1 mM oleate
T1 sequence 1: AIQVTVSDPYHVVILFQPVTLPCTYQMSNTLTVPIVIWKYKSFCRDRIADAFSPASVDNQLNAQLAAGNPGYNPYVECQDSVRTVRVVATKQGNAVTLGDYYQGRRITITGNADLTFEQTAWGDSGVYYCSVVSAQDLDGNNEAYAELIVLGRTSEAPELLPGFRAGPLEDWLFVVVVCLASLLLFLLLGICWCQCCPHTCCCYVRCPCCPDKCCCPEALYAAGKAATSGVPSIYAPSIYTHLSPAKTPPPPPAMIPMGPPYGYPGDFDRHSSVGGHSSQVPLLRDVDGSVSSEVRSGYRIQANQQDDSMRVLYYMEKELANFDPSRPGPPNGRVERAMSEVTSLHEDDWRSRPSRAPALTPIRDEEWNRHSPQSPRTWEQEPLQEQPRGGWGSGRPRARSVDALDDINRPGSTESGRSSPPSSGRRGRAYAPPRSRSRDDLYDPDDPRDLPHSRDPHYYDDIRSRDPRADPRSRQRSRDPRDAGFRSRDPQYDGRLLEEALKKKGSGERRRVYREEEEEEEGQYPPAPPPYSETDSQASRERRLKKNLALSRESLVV
T1 sequence 2: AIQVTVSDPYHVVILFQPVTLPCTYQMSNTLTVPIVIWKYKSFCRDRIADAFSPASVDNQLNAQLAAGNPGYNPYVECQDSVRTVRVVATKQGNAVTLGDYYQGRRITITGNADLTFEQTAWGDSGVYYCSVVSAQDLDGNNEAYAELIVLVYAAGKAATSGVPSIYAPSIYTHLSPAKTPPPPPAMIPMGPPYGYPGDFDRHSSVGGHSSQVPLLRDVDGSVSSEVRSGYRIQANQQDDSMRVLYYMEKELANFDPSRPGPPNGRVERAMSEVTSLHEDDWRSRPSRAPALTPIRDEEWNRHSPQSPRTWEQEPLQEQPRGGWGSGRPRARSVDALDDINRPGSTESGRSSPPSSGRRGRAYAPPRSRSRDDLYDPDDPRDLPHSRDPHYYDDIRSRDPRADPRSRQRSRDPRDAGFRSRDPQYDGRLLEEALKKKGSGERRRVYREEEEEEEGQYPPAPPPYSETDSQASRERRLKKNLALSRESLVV

[2] = target: T2, β subunit of rat LSR (product of cDNA LSR-Rn-1893) (rat) (UniProt Q9WU74); test: ligand blotting of α and β subunits partially purified with sarkosyl, 125I-LDL with oleate
T2 sequence: T1 sequence 2

[3] = target: T3, α subunit of rat LSR (product of cDNA LSR-Rn-2097) (rat) (UniProt Q9WU74); test: as above
T3 sequence: T1 sequence 1

[4] = target: T4, rat LSR receptor (Lipolysis Stimulated Receptor), native multimeric complex of rat liver membranes and rat hepatocytes (rat) (UniProt Q9WU74); test: ligand blotting of solubilized rat liver membrane proteins with 40 µg/ml 125I-LDL, with or without 0.8 mM oleate
T4 sequence 1: T1 sequence 1
T4 sequence 2: T1 sequence 2

[5] = target: T4, rat LSR receptor (Lipolysis Stimulated Receptor), native multimeric complex of rat liver membranes and rat hepatocytes (rat); test: ligand blotting with oleate
[6] = target: T2, β subunit of rat LSR (product of cDNA LSR-Rn-1893) (rat); test: flotation of 35S-labelled in vitro translated LSR with LDL
[7] = target: T3, α subunit of rat LSR (product of cDNA LSR-Rn-2097) (rat); test: as above
[8] = target: T4, rat LSR receptor (Lipolysis Stimulated Receptor), native multimeric complex of rat liver membranes and rat hepatocytes (rat); test: co-purification on an anti-LSR immunoaffinity resin with NH2-terminal sequencing; inhibition of LSR activity by anti-gC1q-R peptide antibodies
[9] = target: T4, rat LSR receptor (Lipolysis Stimulated Receptor), native multimeric complex of rat liver membranes and rat hepatocytes (rat); test: immunoprecipitation of rat hepatocyte lysates with anti-LSR antibodies, reducing conditions

Measured: binding

LDL (low-density lipoprotein, 1.025<d<1.055 g/ml) isolated from plasma of volunteers (from UniProt P04114 28-4563)
not listed: [8] | [9]
binds: all other assays above

B1: γ subunit of LSR, about 35 kDa, identified as gC1q-R (or a structurally similar homologue) from rat liver membranes (protein, UniProt O35796 72-279, looked up)
chain: LHTEGDKAFVEFLTDEIKEEKKIQKHKSLPKMSGDWELEVNGTEAKLLRKVAGEKITVTFNINNSIPPTFDGEEEPSQGQKAEEQEPELTSTPNFVVEVTKTDGKKTLVLDCHYPEDEIGHEDEAESDIFSIKEVSFQTTGDSEWRDTNYTLNTDSLDWALYDHLMDFLADRGVDNTFADELVELSTALEHQEYITFLEDLKSFVKSQ
binds: [8] | [9]
